This list was built around the results that the source calls inconclusive (neither active nor inactive); the mix of calls is not that of the screen. The calls were made as follows: active = hit-call score of the fitted dose curve at least 0.9, where 1 is the maximum; inconclusive = response in the unintended direction; inactive = score below 0.9. Potencies of inconclusive entries are doubtful fits and often do not repeat.
Biological target: human Androgen Receptor (AR), AR (gene 367) (UniProt P10275)
Assay: ATG_hAR_EcoTox2: Attagene TRANS-FACTORIAL EcoTox-2 HepG2 Assay for human Androgen Receptor (AR)
Description: ATG_EcoTox2 is a cell-based, multiplexed assay created by modifying the existing Attagene TRANS-FACTORIAL system to include a panel of nuclear receptors from some or all the following species: human (Homo sapiens), african clawed frog (Xenopus laevis), rainbow trout (Oncorhynchus mykiss), japanese medaka (Oryzias latipes), and zebrafish (Danio rerio). The ECOTOX2-FACTORIAL format uses HepG2, a human liver cell line, with measurements taken at 24 hours after chemical dosing in a 24-well plate. ATG_hAR_EcoTox2 is one of 29 assay components calculated in the ATG_EcoTox2 assay. It is designed to make measurements of mRNA induction, a form of inducible reporter, as detected with fluorescence intensity signals by Reverse transcription polymerase chain reaction (RT-PCR) and Capillary electrophoresis technology.The assay endpoint ATG_hAR_EcoTox2 was analyzed in the positive analysis fitting direction relative to DMSO as the negative control and baseline of activity. Using a type of inducible reporter, measures of mRNA for gain-of-signal activity can be used to understand the reporter gene at the transcription factor-level as they relate to the gene AR. Furthermore, this assay endpoint can be referred to as a primary readout, because this assay has produced multiple assay endpoints where this one serves a reporter gene function. […]

The chains behind the UniProt entries cited, without tags or fusion partners. Where a name states a change or a piece, a line headed by the entry shows the natural chain unless it says otherwise.
UniProt P10275: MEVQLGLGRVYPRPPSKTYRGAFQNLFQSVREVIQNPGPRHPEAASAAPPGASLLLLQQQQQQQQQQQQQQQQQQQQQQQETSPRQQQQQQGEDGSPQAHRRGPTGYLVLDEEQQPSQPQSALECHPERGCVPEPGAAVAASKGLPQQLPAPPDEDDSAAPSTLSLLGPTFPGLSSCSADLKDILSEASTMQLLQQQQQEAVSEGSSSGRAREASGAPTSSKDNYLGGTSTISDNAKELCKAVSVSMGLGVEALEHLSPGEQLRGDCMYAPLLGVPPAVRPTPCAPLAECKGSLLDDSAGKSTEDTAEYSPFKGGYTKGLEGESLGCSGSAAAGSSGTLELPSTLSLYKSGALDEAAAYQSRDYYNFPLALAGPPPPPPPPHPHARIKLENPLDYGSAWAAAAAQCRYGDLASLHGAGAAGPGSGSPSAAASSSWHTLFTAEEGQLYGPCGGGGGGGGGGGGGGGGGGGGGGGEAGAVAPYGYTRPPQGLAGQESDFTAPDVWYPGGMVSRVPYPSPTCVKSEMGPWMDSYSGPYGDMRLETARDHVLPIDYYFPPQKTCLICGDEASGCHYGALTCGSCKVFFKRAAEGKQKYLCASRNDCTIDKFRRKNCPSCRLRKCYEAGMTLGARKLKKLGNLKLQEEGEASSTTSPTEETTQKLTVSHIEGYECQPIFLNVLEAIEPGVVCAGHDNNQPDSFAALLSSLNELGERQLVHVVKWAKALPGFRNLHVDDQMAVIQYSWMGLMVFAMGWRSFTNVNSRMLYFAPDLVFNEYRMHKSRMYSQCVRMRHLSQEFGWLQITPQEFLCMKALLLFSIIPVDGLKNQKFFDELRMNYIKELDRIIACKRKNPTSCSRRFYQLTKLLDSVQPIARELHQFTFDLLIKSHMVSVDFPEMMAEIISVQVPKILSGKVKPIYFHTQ

With `CCCCOCN(C(=O)CCl)c1c(CC)cccc1CC` the AC50 was inconclusive: 45.1 nM.
For `[Cl][Sn]([c]1ccccc1)([c]1ccccc1)[c]1ccccc1`, the AC50 was inconclusive: 1390 nM.

Reference: PubChem BioAssay AID2284370 (EPA ToxCast)
